From patent publication US11013719B2, “Sunitinib formulations and methods for use thereof in treatment of glaucoma” (The Johns Hopkins University, priority 2014, dated 2021)
At least one structure is not confirmed: it was looked up by name or label, or the drawing left a doubt.

Tested on: immunopanned RGCs
Assay: Survival of immunopanned primary RGCs in culture
Assay type: cell-based, mice
Conditions: increasing doses, 72 hours in culture
Method: All animal use was in accordance with ARVO Statement for the Use of Animals, and all the experimental procedures were performed in compliance with animal protocols approved by the IACUC at Johns Hopkins University. Retinas were isolated from postnatal 0-5 day mice and dissociated with papain. Microglia was immunodepleted with anti-CD11b conjugated Dynabeads. The suspension of retinal cells were immunopanned on plates pre-conjugated with anti-Thy1.2 antibody (Serotec, MCA028) and anti-mouse IgM at room temperature (RT). After washing, RGCs were released from the plate by a cell lifter, counted, and seeded at a density of 10,000 per well in 96-well plates in the media composed of Neurobasal, B27, N2 supplement, L-glutamine, and penicillin/streptomycin. […] Images were taken from portions of each well with Cellomics Kinetscan, and cell survival was quantified and calculated with the algorithms in Cellomics Neuroprofiling package. As indicated, RGC viability was alternatively measured by CellTiter-Glo luminescence (Promega).
For siRNA-based screening, the siRNAs from the Sigma Mission Mouse Kinome library were complexed with NeuroMag (Oz Biosciences) at a final concentration of 20 nM. […] Confirmatory siRNAs were obtained from both Dharmacon and Ambion. […] RGCs were cultured for 48 h, and cell viability was analyzed on a plate reader (ViewLux, Perkin Elmer) using the bioluminescent CellTiterGlo (Promega) assay. Concentration response curves were created using CurveFit (NIH NCATS).

| Compound | Neuroprotective (survival-promoting) activity on primary RGCs in culture |
| --- | --- |
| CNC(=O)c1ccccc1Sc1ccc2c(/C=C/c3ccccn3)n[nH]c2c1 [axitinib] | promoted the survival of primary RGCs in culture |
| COc1cc(Nc2c(C#N)cnc3cc(OCCCN4CCN(C)CC4)c(OC)cc23)c(Cl)cc1Cl [bosutinib] | promoted the survival of primary RGCs in culture |
| COc1cc2c(N3CCN(C(=O)Nc4ccc(OC(C)C)cc4)CC3)ncnc2cc1OCCCN1CCCCC1 [tandutinib] | lack neuroprotective activity |
| COc1cc2c(Nc3ccc(Br)cc3F)ncnc2cc1OCC1CCN(C)CC1 [vandetanib] | lack neuroprotective activity |
